The M2OR odorant receptor database
Only a part is listed here, and it is no random draw. The calls were merged from several studies; some rest on single wells. The list shows a part of the results.

Chains of the proteins cited; added tags and fusions are not shown. Chains listed by the source or under a name are the forms on record and can include a tag or linker.
OR5DE, as listed by the source: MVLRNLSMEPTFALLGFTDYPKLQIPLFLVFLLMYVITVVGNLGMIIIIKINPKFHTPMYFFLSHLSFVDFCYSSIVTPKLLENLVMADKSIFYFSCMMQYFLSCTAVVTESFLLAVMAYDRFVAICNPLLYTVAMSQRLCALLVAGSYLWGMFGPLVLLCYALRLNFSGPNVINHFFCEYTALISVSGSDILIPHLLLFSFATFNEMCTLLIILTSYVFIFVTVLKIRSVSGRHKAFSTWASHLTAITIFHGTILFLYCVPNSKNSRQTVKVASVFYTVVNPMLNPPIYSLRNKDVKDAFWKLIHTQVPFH

How the values were obtained:
Conditions in all cases: stereoisomer not certain
[1] = test system: T1, OR5B2
T1 sequence (whole entry): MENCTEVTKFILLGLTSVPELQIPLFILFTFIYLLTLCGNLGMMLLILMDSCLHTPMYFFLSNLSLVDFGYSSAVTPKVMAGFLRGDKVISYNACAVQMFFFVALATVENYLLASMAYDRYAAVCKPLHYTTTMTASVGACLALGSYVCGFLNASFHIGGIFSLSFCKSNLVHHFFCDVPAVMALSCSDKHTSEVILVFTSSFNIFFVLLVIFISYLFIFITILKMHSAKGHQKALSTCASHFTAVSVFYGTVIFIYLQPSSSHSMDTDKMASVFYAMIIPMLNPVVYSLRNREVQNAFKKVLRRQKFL
In short: (§1)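 Transient luciferase assays in mammalian cell lines were common, though methods varied by source. The values come from published papers and their supplementary material, with extra details from the original authors when needed. Responsive refers to a measured signal the original authors judged statistically different from baseline, and non-responsive (inactive) to the remainder.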

[2] = target: T2, OR5B3 (Homo sapiens) (UniProt Q8NH48)
T2 sequence (whole entry): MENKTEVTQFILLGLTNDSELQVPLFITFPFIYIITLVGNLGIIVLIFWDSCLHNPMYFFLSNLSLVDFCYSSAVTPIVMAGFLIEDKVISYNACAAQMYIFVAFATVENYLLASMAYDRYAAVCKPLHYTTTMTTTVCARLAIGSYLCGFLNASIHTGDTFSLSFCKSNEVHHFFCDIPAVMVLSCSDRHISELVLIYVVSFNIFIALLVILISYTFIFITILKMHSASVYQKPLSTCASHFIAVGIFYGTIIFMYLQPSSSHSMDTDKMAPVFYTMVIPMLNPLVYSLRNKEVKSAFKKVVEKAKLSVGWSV
In short: as §1

[3] = test system: T3, OR5BC
T3 sequence (whole entry): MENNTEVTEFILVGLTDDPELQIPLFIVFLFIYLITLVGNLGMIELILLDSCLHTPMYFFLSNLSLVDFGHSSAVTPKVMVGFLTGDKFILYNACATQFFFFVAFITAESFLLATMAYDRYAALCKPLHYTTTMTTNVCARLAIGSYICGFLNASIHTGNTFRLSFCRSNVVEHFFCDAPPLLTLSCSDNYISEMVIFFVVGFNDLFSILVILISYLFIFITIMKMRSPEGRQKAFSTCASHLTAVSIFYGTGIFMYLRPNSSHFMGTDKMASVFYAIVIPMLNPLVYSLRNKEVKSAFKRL
In short: as §1

[4] = test system: T4, OR5BL
T4 sequence (whole entry): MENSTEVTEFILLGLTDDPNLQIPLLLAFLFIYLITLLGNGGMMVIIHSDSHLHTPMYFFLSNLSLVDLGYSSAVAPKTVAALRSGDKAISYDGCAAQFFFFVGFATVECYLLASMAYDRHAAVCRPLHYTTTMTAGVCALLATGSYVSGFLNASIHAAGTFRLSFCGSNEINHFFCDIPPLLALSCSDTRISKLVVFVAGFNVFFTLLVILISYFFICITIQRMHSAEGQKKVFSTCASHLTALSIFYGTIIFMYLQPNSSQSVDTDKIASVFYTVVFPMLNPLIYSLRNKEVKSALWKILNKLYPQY
In short: as §1

[5] = target: T5, OR5C1 (Homo sapiens) (UniProt Q8NGR4)
T5 sequence (whole entry): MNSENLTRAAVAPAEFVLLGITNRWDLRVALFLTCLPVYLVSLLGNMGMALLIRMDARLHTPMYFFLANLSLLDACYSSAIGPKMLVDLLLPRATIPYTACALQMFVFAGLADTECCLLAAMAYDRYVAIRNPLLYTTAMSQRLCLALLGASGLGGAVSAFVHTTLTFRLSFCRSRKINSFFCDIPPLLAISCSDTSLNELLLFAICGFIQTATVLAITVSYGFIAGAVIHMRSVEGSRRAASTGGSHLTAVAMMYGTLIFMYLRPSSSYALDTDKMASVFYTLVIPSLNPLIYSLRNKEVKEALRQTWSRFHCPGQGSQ
In short: as §1

[6] = test system: T6, OR5DD
T6 sequence (whole entry): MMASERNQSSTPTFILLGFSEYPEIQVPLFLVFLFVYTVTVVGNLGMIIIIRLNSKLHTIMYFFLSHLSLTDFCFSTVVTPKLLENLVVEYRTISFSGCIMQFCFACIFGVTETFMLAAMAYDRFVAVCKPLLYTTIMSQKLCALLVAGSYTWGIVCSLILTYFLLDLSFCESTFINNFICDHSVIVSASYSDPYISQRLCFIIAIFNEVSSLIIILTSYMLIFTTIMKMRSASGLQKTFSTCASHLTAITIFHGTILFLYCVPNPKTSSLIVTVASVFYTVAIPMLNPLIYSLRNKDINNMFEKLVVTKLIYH
In short: as §1

[7] = test system: T7, OR5DE
T7 sequence (whole entry): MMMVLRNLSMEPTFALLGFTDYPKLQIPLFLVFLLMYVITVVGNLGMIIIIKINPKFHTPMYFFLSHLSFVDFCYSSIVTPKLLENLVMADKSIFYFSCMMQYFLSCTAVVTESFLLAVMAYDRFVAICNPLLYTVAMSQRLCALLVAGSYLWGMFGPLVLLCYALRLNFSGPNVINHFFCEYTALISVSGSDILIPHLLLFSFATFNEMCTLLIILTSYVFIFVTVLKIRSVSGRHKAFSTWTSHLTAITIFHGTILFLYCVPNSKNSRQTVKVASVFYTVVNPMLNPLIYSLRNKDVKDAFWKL
In short: as §1

[8] = test system: T8, OR5DG
T8 sequence (whole entry): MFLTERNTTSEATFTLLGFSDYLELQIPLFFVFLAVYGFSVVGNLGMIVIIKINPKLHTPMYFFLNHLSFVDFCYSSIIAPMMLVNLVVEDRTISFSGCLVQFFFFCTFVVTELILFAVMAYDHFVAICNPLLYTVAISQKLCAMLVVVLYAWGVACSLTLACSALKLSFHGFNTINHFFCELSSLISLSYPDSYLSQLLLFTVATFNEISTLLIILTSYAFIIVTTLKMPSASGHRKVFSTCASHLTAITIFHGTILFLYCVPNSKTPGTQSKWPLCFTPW
In short: as §1

[9] = test system: T9, OR5DI
T9 sequence (whole entry): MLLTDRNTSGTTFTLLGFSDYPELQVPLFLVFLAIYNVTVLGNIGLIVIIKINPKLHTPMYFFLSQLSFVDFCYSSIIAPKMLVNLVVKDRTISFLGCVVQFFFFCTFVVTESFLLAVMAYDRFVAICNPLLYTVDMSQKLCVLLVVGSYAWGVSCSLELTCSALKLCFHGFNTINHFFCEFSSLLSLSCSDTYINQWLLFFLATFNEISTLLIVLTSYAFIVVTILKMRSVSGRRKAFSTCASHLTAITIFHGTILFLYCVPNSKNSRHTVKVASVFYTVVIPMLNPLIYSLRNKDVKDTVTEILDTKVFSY
In short: as §1

[10] = test system: T10, OR5F1
T10 sequence (whole entry): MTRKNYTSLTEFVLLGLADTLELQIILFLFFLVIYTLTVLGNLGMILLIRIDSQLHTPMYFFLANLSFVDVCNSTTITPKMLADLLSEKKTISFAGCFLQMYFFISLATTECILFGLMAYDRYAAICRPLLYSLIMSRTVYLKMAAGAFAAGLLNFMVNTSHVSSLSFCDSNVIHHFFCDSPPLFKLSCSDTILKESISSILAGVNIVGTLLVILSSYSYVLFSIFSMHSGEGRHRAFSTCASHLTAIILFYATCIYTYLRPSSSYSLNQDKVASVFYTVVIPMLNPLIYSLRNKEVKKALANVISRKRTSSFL
In short: as §1

[11] = target: T11, OR5H1 (Homo sapiens) (UniProt A6NKK0)
T11 sequence (whole entry): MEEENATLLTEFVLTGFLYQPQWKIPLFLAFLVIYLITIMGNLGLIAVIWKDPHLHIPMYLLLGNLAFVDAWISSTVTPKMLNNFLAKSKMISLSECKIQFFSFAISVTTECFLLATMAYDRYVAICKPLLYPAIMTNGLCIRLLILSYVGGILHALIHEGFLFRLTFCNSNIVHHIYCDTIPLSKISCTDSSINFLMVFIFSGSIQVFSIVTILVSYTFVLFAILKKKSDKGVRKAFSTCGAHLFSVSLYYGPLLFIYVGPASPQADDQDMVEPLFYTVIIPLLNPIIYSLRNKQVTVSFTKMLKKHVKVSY
In short: as §1

[12] = test system: OR5DE; remark: listed apart in the source
In short: as §1

[13] = test system: OR5DE; remark: listed apart in the source
In short: as §1

[14] = test system: OR5DE; remark: listed apart in the source
In short: as §1

[15] = test system: OR5DE; remark: listed apart in the source
In short: as §1
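Also: active if original authors judged signal statistically different from baseline.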

Structure (SMILES) | odorant receptor agonist call [1] | odorant receptor agonist call [2] | odorant receptor agonist call [3] | odorant receptor agonist call [4] | odorant receptor agonist call [5] | odorant receptor agonist call [6] | odorant receptor agonist call [7] | odorant receptor agonist call [8] | odorant receptor agonist call [9] | odorant receptor agonist call [10] | odorant receptor agonist call [11] | odorant receptor agonist call [12] | odorant receptor agonist call [13] | odorant receptor agonist call [14] | odorant receptor agonist call [15]
COc1ccccc1O | inactive | inactive | inactive | inactive | inactive | inactive | inactive | inactive | inactive | inactive | inactive | – | – | – | –
CCCCCCCC=CC=O | inactive | inactive | inactive | inactive | inactive | inactive | inactive | active | inactive | inactive | active | – | – | – | –
c1cnccn1 | inactive | inactive | inactive | inactive | inactive | inactive | inactive | inactive | inactive | inactive | inactive | – | – | – | –
CC(=O)OC(C)(C)C1CC=C(C)CC1 (stereo not drawn) | inactive | inactive | inactive | inactive | inactive | inactive | inactive | inactive | inactive | inactive | inactive | – | – | – | –
CC1CCC(C(C)C)C(O)C1 (stereo not drawn) | inactive | inactive | inactive | inactive | inactive | inactive | inactive | active | inactive | inactive | active | – | – | – | –
CCCC(=O)O | inactive | inactive | inactive | inactive | inactive | inactive | active | inactive | inactive | inactive | inactive | active | inactive | inactive | inactive
O=C1CCCCCCCCCCCCCCO1 | inactive | inactive | inactive | inactive | inactive | inactive | inactive | inactive | inactive | inactive | inactive | – | – | – | –
CCCCCCCCCC=O | inactive | inactive | inactive | inactive | inactive | inactive | inactive | inactive | inactive | inactive | inactive | – | – | – | –
CCCCCC(=O)O | inactive | inactive | inactive | inactive | inactive | inactive | inactive | inactive | inactive | inactive | inactive | – | – | – | –
CC(C)=CCCC(C)=CC=O | inactive | inactive | inactive | inactive | inactive | inactive | inactive | inactive | inactive | inactive | inactive | – | – | – | –
CC(C)C=O | inactive | inactive | inactive | inactive | inactive | inactive | inactive | inactive | inactive | inactive | inactive | – | – | – | –
C=CCc1ccc(OC(C)=O)c(OC)c1 | inactive | inactive | active | inactive | inactive | inactive | inactive | inactive | inactive | active | inactive | – | – | – | –
CCCCCCCCOC(C)=O | inactive | inactive | inactive | inactive | inactive | inactive | inactive | inactive | inactive | inactive | inactive | – | – | – | –
C=CCSCC=C | inactive | inactive | inactive | inactive | inactive | inactive | inactive | inactive | inactive | inactive | inactive | – | – | – | –
CC1COCc2cc3c(cc21)C(C)(C)C(C)C3(C)C (stereo not drawn) | active | inactive | inactive | active | active | inactive | inactive | active | inactive | active | active | – | – | – | –
c1ccc(Oc2ccccc2)cc1 | inactive | inactive | inactive | inactive | inactive | inactive | inactive | inactive | inactive | inactive | inactive | – | – | – | –
O=C1CCCCCCCCCCCC(=O)OCCO1 | inactive | inactive | inactive | inactive | inactive | inactive | inactive | inactive | inactive | inactive | inactive | – | – | – | –
CC(=O)OCC=C(C)CCC=C(C)C | inactive | inactive | inactive | inactive | inactive | inactive | inactive | inactive | inactive | active | inactive | – | – | – | –
CC(C)CCC(=O)O | inactive | inactive | inactive | inactive | inactive | inactive | inactive | inactive | inactive | inactive | inactive | – | – | – | –
CCCCCCCOC(C)=O | inactive | inactive | inactive | inactive | inactive | inactive | inactive | inactive | inactive | inactive | inactive | – | – | – | –
C=CC(C)(O)CCC=C(C)C (stereo not drawn) | inactive | inactive | inactive | inactive | inactive | inactive | inactive | inactive | inactive | inactive | inactive | – | – | – | –
CCC1(O)C2(C)CCC(C2)C1(C)C (stereo not drawn) | inactive | inactive | inactive | inactive | inactive | inactive | inactive | inactive | inactive | inactive | inactive | – | – | – | –
CCC=CCCO | inactive | inactive | inactive | inactive | inactive | inactive | inactive | inactive | inactive | inactive | inactive | – | – | – | –
COC(=O)c1ccccc1O | inactive | inactive | inactive | inactive | inactive | inactive | inactive | inactive | inactive | inactive | inactive | – | – | – | –

Copied from above, 2 compounds:
Structure (SMILES) | odorant receptor agonist call [1] | odorant receptor agonist call [2] | odorant receptor agonist call [3] | odorant receptor agonist call [4] | odorant receptor agonist call [5] | odorant receptor agonist call [6] | odorant receptor agonist call [7] | odorant receptor agonist call [8] | odorant receptor agonist call [9] | odorant receptor agonist call [10] | odorant receptor agonist call [11] | odorant receptor agonist call [12] | odorant receptor agonist call [13] | odorant receptor agonist call [14] | odorant receptor agonist call [15]
COc1ccccc1O | inactive | inactive | inactive | inactive | inactive | inactive | inactive | inactive | inactive | inactive | inactive | – | – | – | –
CCCCCCCC=CC=O | inactive | inactive | inactive | inactive | inactive | inactive | inactive | active | inactive | inactive | active | – | – | – | –
